Some of the results follow.
Compound: Cc1sc2c(c1C)C(c1ccc(Cl)cc1)=N[C@@H](CC(=O)OC(C)(C)C)c1nnc(C)n1-2
Test: log2 fold change, soluble protein after heating vs DMSO (PISA); higher = thermal stabilisation; K562 lysate, 10 uM; active = over 0.2 and 3.5 SD of the protein, either way, in both replicates (recomputed)
In short: (§1)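 Thermal stability, expressed as log-two fold change relative to solvent controls, is given from duplicates. Crude K562 extract in PBS pH 7.4 with 1 mM MgCl2, at 1 mg/mL protein, was treated with 10 μM compound for 30 min and heated in aliquots for 3 min across 48°C-58°C. After pooling, adjustment to 0.5% NP-40 at 4°C and centrifugation at 21,000xg for 90 min, supernatant protein was measured by TMTpro 16plex LC-MS/MS with channel sums equalised.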

By UniProt entry, the sequences of proteins in these tests, tags left out. Where a name states a change or a piece, a line headed by the entry shows the natural chain unless it says otherwise.
UniProt P30086: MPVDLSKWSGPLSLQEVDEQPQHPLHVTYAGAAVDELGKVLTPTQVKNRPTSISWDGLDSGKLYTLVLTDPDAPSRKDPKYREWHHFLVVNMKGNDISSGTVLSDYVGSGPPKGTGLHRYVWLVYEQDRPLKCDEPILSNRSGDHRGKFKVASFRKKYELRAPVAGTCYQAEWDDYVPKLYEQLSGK
UniProt Q7L3T8: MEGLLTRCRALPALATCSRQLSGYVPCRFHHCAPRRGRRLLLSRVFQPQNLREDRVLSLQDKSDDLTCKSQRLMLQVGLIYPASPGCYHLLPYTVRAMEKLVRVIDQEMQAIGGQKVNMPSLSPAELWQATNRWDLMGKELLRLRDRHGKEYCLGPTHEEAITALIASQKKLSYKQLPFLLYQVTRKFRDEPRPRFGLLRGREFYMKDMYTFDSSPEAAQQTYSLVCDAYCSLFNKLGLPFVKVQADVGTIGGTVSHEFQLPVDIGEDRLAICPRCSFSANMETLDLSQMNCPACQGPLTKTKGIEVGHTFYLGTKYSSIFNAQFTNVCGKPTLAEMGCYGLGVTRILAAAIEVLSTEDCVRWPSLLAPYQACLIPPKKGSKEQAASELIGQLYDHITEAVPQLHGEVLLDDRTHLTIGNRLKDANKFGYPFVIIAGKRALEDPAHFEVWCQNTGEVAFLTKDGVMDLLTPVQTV
UniProt Q9NWS1: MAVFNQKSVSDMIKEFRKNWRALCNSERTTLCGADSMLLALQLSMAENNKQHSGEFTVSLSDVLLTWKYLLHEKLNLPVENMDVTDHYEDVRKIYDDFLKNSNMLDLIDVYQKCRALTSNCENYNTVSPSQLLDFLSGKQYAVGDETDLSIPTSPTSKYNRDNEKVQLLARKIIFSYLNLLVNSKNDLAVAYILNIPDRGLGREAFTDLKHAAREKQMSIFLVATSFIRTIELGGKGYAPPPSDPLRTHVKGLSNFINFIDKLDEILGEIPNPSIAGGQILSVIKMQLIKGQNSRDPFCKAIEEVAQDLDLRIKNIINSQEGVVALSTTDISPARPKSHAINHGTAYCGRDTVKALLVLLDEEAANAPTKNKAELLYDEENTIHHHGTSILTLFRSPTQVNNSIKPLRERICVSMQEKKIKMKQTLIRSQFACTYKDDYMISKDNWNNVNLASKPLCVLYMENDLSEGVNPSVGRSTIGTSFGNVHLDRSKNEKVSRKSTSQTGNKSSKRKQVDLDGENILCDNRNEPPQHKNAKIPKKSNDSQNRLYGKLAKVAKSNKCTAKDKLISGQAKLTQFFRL
UniProt Q9Y5K3: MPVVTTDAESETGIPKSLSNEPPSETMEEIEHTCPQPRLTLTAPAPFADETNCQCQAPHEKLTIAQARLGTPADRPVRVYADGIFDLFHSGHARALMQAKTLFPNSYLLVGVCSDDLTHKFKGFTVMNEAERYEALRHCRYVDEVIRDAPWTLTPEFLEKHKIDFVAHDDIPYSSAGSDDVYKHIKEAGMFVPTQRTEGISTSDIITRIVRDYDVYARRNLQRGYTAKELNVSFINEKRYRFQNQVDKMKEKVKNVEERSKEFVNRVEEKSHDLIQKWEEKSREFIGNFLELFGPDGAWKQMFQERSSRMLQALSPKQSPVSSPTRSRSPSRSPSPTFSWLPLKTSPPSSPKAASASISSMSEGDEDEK
UniProt Q5VU43: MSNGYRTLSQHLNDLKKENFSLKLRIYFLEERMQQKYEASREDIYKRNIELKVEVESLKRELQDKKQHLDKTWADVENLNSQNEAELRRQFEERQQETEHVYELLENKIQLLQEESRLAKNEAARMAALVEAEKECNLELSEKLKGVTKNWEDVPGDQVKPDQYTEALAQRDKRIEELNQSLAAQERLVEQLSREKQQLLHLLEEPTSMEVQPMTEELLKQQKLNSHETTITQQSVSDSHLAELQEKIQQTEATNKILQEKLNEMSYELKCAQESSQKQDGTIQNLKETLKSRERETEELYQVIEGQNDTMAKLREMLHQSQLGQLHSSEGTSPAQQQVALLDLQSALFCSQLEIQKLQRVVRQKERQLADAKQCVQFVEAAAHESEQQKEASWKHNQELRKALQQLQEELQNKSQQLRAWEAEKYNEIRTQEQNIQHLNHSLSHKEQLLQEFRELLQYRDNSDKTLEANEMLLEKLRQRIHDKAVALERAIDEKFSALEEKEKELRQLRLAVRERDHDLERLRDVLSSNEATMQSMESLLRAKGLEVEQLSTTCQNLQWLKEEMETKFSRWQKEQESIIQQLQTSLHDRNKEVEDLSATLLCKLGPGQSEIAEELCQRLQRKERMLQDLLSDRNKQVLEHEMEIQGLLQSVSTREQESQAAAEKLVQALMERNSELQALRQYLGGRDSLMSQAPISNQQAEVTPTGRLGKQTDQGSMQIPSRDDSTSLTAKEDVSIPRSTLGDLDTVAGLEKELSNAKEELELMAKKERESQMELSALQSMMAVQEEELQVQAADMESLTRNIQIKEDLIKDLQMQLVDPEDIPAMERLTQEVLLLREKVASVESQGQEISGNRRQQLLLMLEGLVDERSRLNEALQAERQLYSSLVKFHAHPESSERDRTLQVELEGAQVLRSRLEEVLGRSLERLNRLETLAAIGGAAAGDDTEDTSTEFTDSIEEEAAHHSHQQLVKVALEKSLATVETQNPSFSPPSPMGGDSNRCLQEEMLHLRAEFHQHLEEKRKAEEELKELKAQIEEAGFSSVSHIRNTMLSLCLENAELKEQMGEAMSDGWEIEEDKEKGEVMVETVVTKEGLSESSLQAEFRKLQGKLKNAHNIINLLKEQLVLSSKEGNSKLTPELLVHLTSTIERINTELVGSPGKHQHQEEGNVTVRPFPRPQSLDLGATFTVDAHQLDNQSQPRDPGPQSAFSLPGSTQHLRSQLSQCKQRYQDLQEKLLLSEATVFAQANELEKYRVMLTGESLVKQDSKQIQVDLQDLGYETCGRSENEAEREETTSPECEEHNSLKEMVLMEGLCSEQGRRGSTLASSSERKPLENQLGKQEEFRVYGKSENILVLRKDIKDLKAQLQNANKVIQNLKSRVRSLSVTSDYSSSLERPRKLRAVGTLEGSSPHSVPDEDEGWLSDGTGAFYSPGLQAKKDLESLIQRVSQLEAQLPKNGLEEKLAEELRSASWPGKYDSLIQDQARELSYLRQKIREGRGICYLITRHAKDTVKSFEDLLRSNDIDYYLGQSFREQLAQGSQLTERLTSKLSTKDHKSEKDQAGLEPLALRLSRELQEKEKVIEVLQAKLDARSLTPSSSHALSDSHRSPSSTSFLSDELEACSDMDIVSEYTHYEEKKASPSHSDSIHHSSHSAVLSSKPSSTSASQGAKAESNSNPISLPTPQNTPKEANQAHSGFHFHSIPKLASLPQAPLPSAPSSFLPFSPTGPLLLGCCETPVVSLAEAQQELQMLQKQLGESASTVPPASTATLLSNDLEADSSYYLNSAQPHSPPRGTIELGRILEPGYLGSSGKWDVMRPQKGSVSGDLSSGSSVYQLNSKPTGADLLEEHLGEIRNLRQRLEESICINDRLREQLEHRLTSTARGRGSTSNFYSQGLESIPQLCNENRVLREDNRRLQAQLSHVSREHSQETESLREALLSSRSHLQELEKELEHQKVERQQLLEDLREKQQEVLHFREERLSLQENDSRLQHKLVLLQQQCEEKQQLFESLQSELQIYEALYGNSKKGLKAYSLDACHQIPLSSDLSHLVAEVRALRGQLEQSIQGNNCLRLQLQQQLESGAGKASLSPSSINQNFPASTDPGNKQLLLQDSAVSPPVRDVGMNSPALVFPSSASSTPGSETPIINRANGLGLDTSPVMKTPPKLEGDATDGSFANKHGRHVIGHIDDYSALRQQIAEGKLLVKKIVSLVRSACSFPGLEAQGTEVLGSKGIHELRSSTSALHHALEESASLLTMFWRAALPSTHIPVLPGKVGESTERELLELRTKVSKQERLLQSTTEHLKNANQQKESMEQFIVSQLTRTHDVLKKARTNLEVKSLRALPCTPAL
UniProt O00628: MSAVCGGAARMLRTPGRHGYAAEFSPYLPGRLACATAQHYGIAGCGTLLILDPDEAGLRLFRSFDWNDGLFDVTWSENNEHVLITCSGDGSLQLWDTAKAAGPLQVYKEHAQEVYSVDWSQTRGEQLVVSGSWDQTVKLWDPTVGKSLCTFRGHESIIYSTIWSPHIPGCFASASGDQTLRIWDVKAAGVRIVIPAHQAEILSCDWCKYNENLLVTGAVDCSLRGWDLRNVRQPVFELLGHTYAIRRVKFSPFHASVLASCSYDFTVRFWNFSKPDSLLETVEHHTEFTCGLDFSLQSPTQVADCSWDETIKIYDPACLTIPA
UniProt Q15121, whole entry, looked up: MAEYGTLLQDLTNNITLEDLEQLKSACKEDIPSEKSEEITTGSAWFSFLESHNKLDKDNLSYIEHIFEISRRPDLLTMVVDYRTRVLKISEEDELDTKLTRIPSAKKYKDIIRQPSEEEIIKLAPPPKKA
UniProt Q5EBL8: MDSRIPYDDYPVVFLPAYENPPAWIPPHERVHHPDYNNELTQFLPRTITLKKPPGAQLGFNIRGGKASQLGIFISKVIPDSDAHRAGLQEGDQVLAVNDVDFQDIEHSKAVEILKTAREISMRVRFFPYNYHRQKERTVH
UniProt Q15154: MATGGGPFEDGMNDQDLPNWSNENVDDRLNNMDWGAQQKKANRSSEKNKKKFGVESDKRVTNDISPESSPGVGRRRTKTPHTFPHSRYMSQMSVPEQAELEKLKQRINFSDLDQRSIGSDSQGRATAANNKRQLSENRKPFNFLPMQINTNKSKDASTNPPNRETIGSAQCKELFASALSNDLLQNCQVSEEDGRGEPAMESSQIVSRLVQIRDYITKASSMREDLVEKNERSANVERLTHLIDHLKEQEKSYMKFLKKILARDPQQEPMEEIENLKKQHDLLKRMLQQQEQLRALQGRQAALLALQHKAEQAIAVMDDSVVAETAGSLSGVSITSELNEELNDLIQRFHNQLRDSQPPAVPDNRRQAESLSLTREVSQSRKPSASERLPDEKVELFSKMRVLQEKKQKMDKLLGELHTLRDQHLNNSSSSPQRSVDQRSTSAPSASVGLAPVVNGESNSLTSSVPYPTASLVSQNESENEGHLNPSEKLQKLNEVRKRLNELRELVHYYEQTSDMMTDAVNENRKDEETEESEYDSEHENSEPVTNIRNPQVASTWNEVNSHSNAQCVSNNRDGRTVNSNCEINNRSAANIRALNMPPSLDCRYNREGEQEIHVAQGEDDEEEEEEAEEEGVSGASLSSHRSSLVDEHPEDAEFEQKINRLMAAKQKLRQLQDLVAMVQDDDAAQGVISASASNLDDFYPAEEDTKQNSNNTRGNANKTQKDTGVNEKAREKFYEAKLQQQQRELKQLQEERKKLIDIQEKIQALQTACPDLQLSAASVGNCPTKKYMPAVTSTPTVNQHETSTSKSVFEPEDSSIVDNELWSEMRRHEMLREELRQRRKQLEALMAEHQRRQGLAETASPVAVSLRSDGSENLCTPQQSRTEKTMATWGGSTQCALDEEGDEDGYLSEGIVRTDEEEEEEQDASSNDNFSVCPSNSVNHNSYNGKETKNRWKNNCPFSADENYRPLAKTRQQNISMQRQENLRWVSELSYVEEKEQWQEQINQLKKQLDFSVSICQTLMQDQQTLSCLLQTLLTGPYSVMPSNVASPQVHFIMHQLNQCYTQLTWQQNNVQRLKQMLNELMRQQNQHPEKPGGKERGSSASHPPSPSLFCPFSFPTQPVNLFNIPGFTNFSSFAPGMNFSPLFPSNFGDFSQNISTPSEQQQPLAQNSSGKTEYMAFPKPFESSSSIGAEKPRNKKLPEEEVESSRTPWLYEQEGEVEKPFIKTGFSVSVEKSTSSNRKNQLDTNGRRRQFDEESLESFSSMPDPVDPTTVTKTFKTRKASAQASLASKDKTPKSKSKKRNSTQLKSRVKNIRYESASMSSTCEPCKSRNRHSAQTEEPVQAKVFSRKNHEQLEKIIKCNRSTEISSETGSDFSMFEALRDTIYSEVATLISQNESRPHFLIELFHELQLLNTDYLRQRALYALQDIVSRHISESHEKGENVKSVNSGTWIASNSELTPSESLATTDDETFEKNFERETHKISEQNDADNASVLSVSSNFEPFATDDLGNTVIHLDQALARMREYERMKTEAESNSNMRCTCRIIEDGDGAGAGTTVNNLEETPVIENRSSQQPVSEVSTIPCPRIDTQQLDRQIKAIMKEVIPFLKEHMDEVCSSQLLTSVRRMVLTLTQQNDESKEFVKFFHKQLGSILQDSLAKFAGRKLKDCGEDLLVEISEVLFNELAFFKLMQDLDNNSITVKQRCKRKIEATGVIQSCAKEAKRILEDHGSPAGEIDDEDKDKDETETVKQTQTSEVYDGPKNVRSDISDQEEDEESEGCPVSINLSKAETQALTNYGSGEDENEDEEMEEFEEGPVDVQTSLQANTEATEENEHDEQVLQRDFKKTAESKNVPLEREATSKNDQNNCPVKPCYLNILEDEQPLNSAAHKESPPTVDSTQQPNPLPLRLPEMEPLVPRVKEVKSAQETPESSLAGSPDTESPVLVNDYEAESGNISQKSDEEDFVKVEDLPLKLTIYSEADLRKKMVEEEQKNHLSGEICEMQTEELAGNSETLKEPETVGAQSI

**Q.** Which log2 fold change does the source give for PELP1 (UniProt Q8IZL8) here?
**A.** Its log2 fold change is inactive: -0.069.

**Q.** PCYOX1 (UniProt Q9UHG3) was tested. Which log2 fold change did it give?
**A.** The log2 fold change was inactive: 0.022.

**Q.** How did the log2 fold change turn out when PEBP1 (UniProt P30086) was run?
**A.** The log2 fold change was inactive: 0.002.

**Q.** How did the log2 fold change turn out when PEX2 (UniProt P28328) was run?
**A.** The log2 fold change was inactive: 0.116.

**Q.** How did the log2 fold change turn out when PARS2 (UniProt Q7L3T8) was run?
**A.** The log2 fold change was inactive: 0.017.

**Q.** PBLD (UniProt P30039) was tested. Which log2 fold change did it give?
**A.** Its log2 fold change is inactive: -0.048.

**Q.** PFKFB4 (UniProt Q16877) was tested. Which log2 fold change did it give?
**A.** Its log2 fold change is inactive: -0.053.

**Q.** PARPBP (UniProt Q9NWS1) was tested. Which log2 fold change did it give?
**A.** Its log2 fold change is inactive: -0.142.

**Q.** With PDXDC1 (UniProt Q6P996) as the target, how does the log2 fold change read?
**A.** The log2 fold change was inactive: 0.02.

**Q.** Which log2 fold change does the source give for PAXIP1 (UniProt Q6ZW49) here?
**A.** Its log2 fold change is inactive: 0.03.

**Q.** PC (UniProt P11498) was tested. Which log2 fold change did it give?
**A.** Its log2 fold change is inactive: 0.006.

**Q.** For PCCB (UniProt P05166), which log2 fold change is on record?
**A.** The log2 fold change was inactive: -0.004.

**Q.** How did the log2 fold change turn out when PET100 (UniProt P0DJ07) was run?
**A.** Its log2 fold change is inactive: 0.06.

**Q.** For PDCD2L (UniProt Q9BRP1), which log2 fold change is on record?
**A.** Its log2 fold change is inactive: -0.084.

**Q.** How did the log2 fold change turn out when PCIF1 (UniProt Q9H4Z3) was run?
**A.** The log2 fold change was inactive: 0.066.

**Q.** With PFKFB2 (UniProt O60825) as the target, how does the log2 fold change read?
**A.** Its log2 fold change is inactive: -0.001.

**Q.** With PDXK (UniProt O00764) as the target, how does the log2 fold change read?
**A.** The log2 fold change was inactive: -0.028.

**Q.** For PCBP2 (UniProt F8W0G4), which log2 fold change is on record?
**A.** Its log2 fold change is inactive: 0.103.

**Q.** PCYT1B (UniProt Q9Y5K3) was tested. Which log2 fold change did it give?
**A.** Its log2 fold change is inactive: -0.03.

**Q.** For PAXX (UniProt Q9BUH6), which log2 fold change is on record?
**A.** Its log2 fold change is inactive: -0.026.

**Q.** Which log2 fold change does the source give for PCLO (UniProt Q9Y6V0) here?
**A.** Its log2 fold change is inactive: -0.093.

**Q.** PFDN2 (UniProt Q9UHV9) was tested. Which log2 fold change did it give?
**A.** The log2 fold change was inactive: -0.008.

**Q.** How did the log2 fold change turn out when PDS5A (UniProt Q29RF7) was run?
**A.** The log2 fold change was inactive: -0.011.

**Q.** How did the log2 fold change turn out when PCSK9 (UniProt Q8NBP7) was run?
**A.** Its log2 fold change is inactive: -0.047.

**Q.** Which log2 fold change does the source give for PCGF5 (UniProt Q86SE9) here?
**A.** The log2 fold change was inactive: 0.

**Q.** For PDE4DIP isoform 4 (UniProt Q5VU43), which log2 fold change is on record?
**A.** Its log2 fold change is inactive: -0.016.

**Q.** For PEX7 (UniProt O00628), which log2 fold change is on record?
**A.** Its log2 fold change is inactive: -0.096.

**Q.** With PEX19 (UniProt P40855) as the target, how does the log2 fold change read?
**A.** Its log2 fold change is inactive: -0.06.

**Q.** With PDE12 (UniProt Q6L8Q7) as the target, how does the log2 fold change read?
**A.** The log2 fold change was inactive: 0.055.

**Q.** With PDPR (UniProt Q8NCN5) as the target, how does the log2 fold change read?
**A.** Its log2 fold change is inactive: 0.001.

**Q.** With PDIA3 (UniProt P30101) as the target, how does the log2 fold change read?
**A.** Its log2 fold change is inactive: 0.015.

**Q.** With PES1 (UniProt O00541) as the target, how does the log2 fold change read?
**A.** Its log2 fold change is inactive: 0.016.

**Q.** PCF11 (UniProt O94913) was tested. Which log2 fold change did it give?
**A.** The log2 fold change was inactive: 0.008.

**Q.** With PEA15 isoform 2 (UniProt Q15121) as the target, how does the log2 fold change read?
**A.** The log2 fold change was inactive: -0.072.

**Q.** PDZD11 isoform 2 (UniProt Q5EBL8) was tested. Which log2 fold change did it give?
**A.** Its log2 fold change is inactive: -0.053.

**Q.** For PCM1 (UniProt Q15154), which log2 fold change is on record?
**A.** The log2 fold change was inactive: -0.002.

**Q.** PARP9 (UniProt Q8IXQ6) was tested. Which log2 fold change did it give?
**A.** Its log2 fold change is inactive: 0.123.

Compound: c1ccc([C@@H]2C[C@H]2NC2CCNCC2)cc1
Test: as above
In short: as §1

**Q.** PELP1 (UniProt Q8IZL8) was tested. Which log2 fold change did it give?
**A.** Its log2 fold change is inactive: 0.045.

**Q.** Which log2 fold change does the source give for PCYOX1 (UniProt Q9UHG3) here?
**A.** Its log2 fold change is inactive: -0.002.

**Q.** Which log2 fold change does the source give for PEBP1 (UniProt P30086) here?
**A.** Its log2 fold change is inactive: -0.005.

**Q.** Which log2 fold change does the source give for PEX2 (UniProt P28328) here?
**A.** The log2 fold change was inactive: -0.365.

**Q.** For PARS2 (UniProt Q7L3T8), which log2 fold change is on record?
**A.** Its log2 fold change is inactive: 0.068.

**Q.** With PBLD (UniProt P30039) as the target, how does the log2 fold change read?
**A.** The log2 fold change was inactive: 0.013.

**Q.** Which log2 fold change does the source give for PFKFB4 (UniProt Q16877) here?
**A.** The log2 fold change was inactive: -0.007.

**Q.** Which log2 fold change does the source give for PARPBP (UniProt Q9NWS1) here?
**A.** Its log2 fold change is inactive: -0.143.

**Q.** How did the log2 fold change turn out when PDXDC1 (UniProt Q6P996) was run?
**A.** The log2 fold change was inactive: 0.014.

**Q.** PAXIP1 (UniProt Q6ZW49) was tested. Which log2 fold change did it give?
**A.** The log2 fold change was inactive: 0.048.

**Q.** Which log2 fold change does the source give for PC (UniProt P11498) here?
**A.** The log2 fold change was inactive: -0.016.

**Q.** How did the log2 fold change turn out when PCCB (UniProt P05166) was run?
**A.** The log2 fold change was inactive: 0.023.

**Q.** For PET100 (UniProt P0DJ07), which log2 fold change is on record?
**A.** Its log2 fold change is inactive: 0.151.

**Q.** Which log2 fold change does the source give for PDCD2L (UniProt Q9BRP1) here?
**A.** The log2 fold change was inactive: -0.013.

**Q.** Which log2 fold change does the source give for PCIF1 (UniProt Q9H4Z3) here?
**A.** Its log2 fold change is inactive: -0.111.

**Q.** How did the log2 fold change turn out when PFKFB2 (UniProt O60825) was run?
**A.** Its log2 fold change is inactive: -0.008.

**Q.** For PDXK (UniProt O00764), which log2 fold change is on record?
**A.** Its log2 fold change is inactive: -0.056.

**Q.** With PCYT1B (UniProt Q9Y5K3) as the target, how does the log2 fold change read?
**A.** The log2 fold change was inactive: -0.073.

**Q.** With PAXX (UniProt Q9BUH6) as the target, how does the log2 fold change read?
**A.** Its log2 fold change is inactive: -0.011.

**Q.** Which log2 fold change does the source give for PCLO (UniProt Q9Y6V0) here?
**A.** Its log2 fold change is inactive: -0.211.

**Q.** With PFDN2 (UniProt Q9UHV9) as the target, how does the log2 fold change read?
**A.** Its log2 fold change is inactive: 0.063.

**Q.** How did the log2 fold change turn out when PDS5A (UniProt Q29RF7) was run?
**A.** Its log2 fold change is inactive: 0.019.

**Q.** Which log2 fold change does the source give for PCSK9 (UniProt Q8NBP7) here?
**A.** Its log2 fold change is inactive: -0.104.

**Q.** For PDE4DIP isoform 4 (UniProt Q5VU43), which log2 fold change is on record?
**A.** The log2 fold change was inactive: -0.015.

**Q.** With PEX7 (UniProt O00628) as the target, how does the log2 fold change read?
**A.** Its log2 fold change is inactive: 0.031.

**Q.** PEX19 (UniProt P40855) was tested. Which log2 fold change did it give?
**A.** The log2 fold change was inactive: -0.084.

**Q.** Which log2 fold change does the source give for PDE12 (UniProt Q6L8Q7) here?
**A.** Its log2 fold change is inactive: 0.044.

**Q.** For PDPR (UniProt Q8NCN5), which log2 fold change is on record?
**A.** Its log2 fold change is inactive: -0.02.

**Q.** How did the log2 fold change turn out when PDIA3 (UniProt P30101) was run?
**A.** Its log2 fold change is inactive: 0.033.

**Q.** How did the log2 fold change turn out when PES1 (UniProt O00541) was run?
**A.** Its log2 fold change is inactive: 0.02.

**Q.** Which log2 fold change does the source give for PCF11 (UniProt O94913) here?
**A.** Its log2 fold change is inactive: 0.079.

**Q.** Which log2 fold change does the source give for PEA15 isoform 2 (UniProt Q15121) here?
**A.** The log2 fold change was inactive: -0.032.

**Q.** Which log2 fold change does the source give for PDZD11 isoform 2 (UniProt Q5EBL8) here?
**A.** Its log2 fold change is inactive: 0.004.

**Q.** PCM1 (UniProt Q15154) was tested. Which log2 fold change did it give?
**A.** The log2 fold change was inactive: 0.026.

Reference: the supplement of paper PMC10849652
